From patent US12428442B2, “Compounds, compositions and methods for synthesis” (WAVE LIFE SCIENCES LTD., priority 2017, dated 2025)
Where “and” joins values, the source holds several entries; their conditions need not be identical. Identical values can stand only once.

Experiment: Use of chiral auxiliaries / phosphoramidite monomers in oligonucleotide synthesis (SOCICS or DPSE cycle), analysed by RP-HPLC/UPLC (Table 7)
Settings: dC dimer
[1] = cycle DPSE, activator 0.45M ETT
[2] = cycle DPSE, activator 0.5M CMIMT

SMILES	Dimer Conv. % [1]	Dimer HPLC Area % dC [1]	Dimer HPLC Area % dCC (Rp) [1]	Dimer HPLC Area % dCC (Sp) [1]	Dimer Rp/Sp [1]	Dimer d.r. [1]	Dimer Conv. % [2]	Dimer HPLC Area % dC [2]	Dimer HPLC Area % dCC (Rp) [2]	Dimer HPLC Area % dCC (Sp) [2]	Dimer Rp/Sp [2]	Dimer d.r. [2]	Dimer HPLC Area % dCC (PO) [2] [%]	Dimer Conv. % (cycle SOSICS, activator CMPT) [%]	Dimer HPLC Area % dC (cycle SOSICS, activator CMPT) [%]	Dimer HPLC Area % dCC (PO) (cycle SOSICS, activator CMPT) [%]	Dimer HPLC Area % dCC (Rp) (cycle SOSICS, activator CMPT) [%]	Dimer HPLC Area % dCC (Sp) (cycle SOSICS, activator CMPT) [%]	Dimer Rp/Sp (cycle SOSICS, activator CMPT)	Dimer d.r. (cycle SOSICS, activator CMPT)
CC1(C)CN[C@H]([C@H](O)C[Si](C)(c2ccccc2)c2ccccc2)C1 [WV-CA-111]	74.8% and 80.4%	11.40% and 8.51%	1.16% and 1.31%	87.45% and 90.18%	Sp	98.69 and 98.57	75.9% and 88.5%	10.80% and 4.73%	0.37% and 0.40%	88.83% and 94.87%	Sp	99.59 and 99.58								
C[Si](C[C@@H](O)[C@@H]1C[C@@H]2CCCC[C@@H]2N1)(c1ccccc1)c1ccccc1 [WV-CA-112]	73.4% and 84.9%	12.13% and 6.34%	1.04% and 1.22%	86.83% and 92.44%	Sp	98.82 and 98.70	83.0% and 71.0% and 96.3%		0.37% and 0.24% and 1.31%	92.39% and 86.26% and 96.72%	Sp	99.60 and 99.72 and 98.66	0.64							
C[C@@](O)(c1ccccc1)[C@@H]1CCN1 [WV-CA-118, (R)-1-((S)-azetidin-2-yl)-1-phenylethan-1-ol]														87.9	6.40	3.13	0.77	87.49	Sp	99.13
C[C@](O)(c1ccccc1)[C@@H]1CCN1 [WV-CA-118S, (S)-1-((S)-azetidin-2-yl)-1-phenylethan-1-ol]														82.5	9.61	1.27	7.04	81.05	Sp	92.01
C[Si](C[C@@H](O)[C@@H]1C[C@@H]2CCC[C@@H]2N1)(c1ccccc1)c1ccccc1 [WV-CA-119, (S)-2-(methyldiphenylsilyl)-1-((2S,3aS,6aS)-octahydrocyclopenta[b]pyrrol-2-yl)ethan-1-ol]							97.3%	1.40%	0.72%	97.38%	Sp	99.27	0.50							
O[C@H](Cc1ccccc1)[C@@H]1CCCN1 [WV-CA-122, (R)-2-phenyl-1-((S)-pyrrolidin-2-yl)ethan-1-ol]														83.1	6.04	0.00	0.77	57.72	Sp	98.68
C[C@@](O)(Cc1ccccc1)[C@@H]1CCCN1 [WV-CA-123, (R)-1-phenyl-2-((S)-pyrrolidin-2-yl)propan-2-ol]														78.2	12.17	0.63	1.06	84.45	Sp	98.76
COc1ccc([C@@](C)(O)[C@@H]2CCCN2)cc1 [WV-CA-124]														60.1	23.81	2.14	1.36	67.25	Sp	98.02
CNC1CCCCC1C1(O)CC1 (stereo not drawn) [WV-CA-160]														42.2	40.4914	0.6205	45.8627	11.7766	Rp	79.57
OC1(C2CCCN2)c2ccccc2-c2ccccc21 (stereo not drawn) [WV-CA-164]														66.4	20.2741	0.2216	9.2876	69.4561	Sp	88.21
CNC1(C)C2CCC(C2)C1(C)O (stereo not drawn) [WV-CA-168]														89.5	5.5686	0.4474	1.017	92.0584	Sp	98.91
